Measurements reported in PubChem BioAssay AID1259308 (NCATS, 2017).
Purpose: 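Knock-downs that increase output of a recombinant reporter protein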 (primary screen). Cell system: human HEK293 embryonic kidney cells stably expressing firefly luciferase (HEK-CMV-Luc2-Hygro). Reagents: single siRNA against human genes, 0.8 pmol siRNA per well. Duration: 72 h. Detection: 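Reporter luminescence and viable-cell signal on separate replicate plates, given as percent of non-targeting control and median/MAD z-scores, plus per-cell luciferase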. Direction: total luciferase, z-score: higher = more reporter protein produced. Rule for the call: 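An siRNA counts as active if its total luciferase robust z-score exceeds 3; genes with two or more such siRNAs out of three were retested with fresh siRNAs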. Meaning of the calls: active = raised luciferase; inactive = no rise.
Shown is an unselected part of about 59,000 reagents. Over the whole deposit, about 1,510 (2.6%) are marked active. 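Calls use total luciferase alone and ignore viability, so some active siRNAs may act by altering cell number.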 Unmarked entries are inactive. Not all columns of the deposit are shown.

| gene symbol | PubChem SID | total luciferase, z-score |
| --- | --- | --- |
| DIPK1C | SID160756338 | 0.529 |
| DIPK1C | SID160756339 | -0.741 |
| DIPK1C | SID160756340 | -0.899 |
| AVPR2 | SID160722564 | 0.327 |
| AVPR2 | SID160722585 | -1.21 |
| AVPR2 | SID160731507 | -1.22 |
| CHD9 | SID160750203 | -0.54 |
| CHD9 | SID160750204 | -0.871 |
| CHD9 | SID160750205 | 0.00672 |
| RPL29 | SID160716089 | -1.51 |
| RPL29 | SID160716090 | -0.923 |
| RPL29 | SID160724031 | 1.11 |
| ASB14 | SID160757982 | 1.91 |
| ASB14 | SID160757983 | 0.0627 |
| ASB14 | SID160757984 | -0.565 |
| JPX | SID160725892 | 1.54 |
| JPX | SID160733969 | -0.795 |
| JPX | SID160769785 | 0.783 |
| SYNPO2 | SID160760498 | 0.223 |
| SYNPO2 | SID160760499 | -0.163 |
| SYNPO2 | SID160760500 | 1.78 |
| ZNF585A | SID160760739 | 0.382 |
| ZNF585A | SID160760740 | 0.067 |
| ZNF585A | SID160760741 | -0.926 |

A stretch of the results above:
| gene symbol | PubChem SID | total luciferase, z-score |
| --- | --- | --- |
| AVPR2 | SID160731507 | -1.22 |
| CHD9 | SID160750203 | -0.54 |
